Measurements taken from article PMC7216583 (Parasites & Vectors, 2020).

Test system: Toxoplasma gondii RH-2F tachyzoites
Test: microbe, parasite or virus in culture
Settings: 72 h, read-out: Parasite inhibition (%) mean

How did the inhibition of growth at 5 µM turn out when CCS(=O)(=O)N1CC(CC#N)(n2cc(-c3ncnc4[nH]ccc34)cn2)C1 [Baricitinib (LY3009104, INCB28050)] was run?
Its inhibition of growth at 5 µM is 32.5%.
